Experimental data reported in the supplement of paper PMC12819154, “High-throughput peptide-centric local stability assay extends protein–ligand identification to membrane proteins, tissues and bacteria” (Nature Structural & Molecular Biology, 2025).
The other results are listed elsewhere or left out. Most values lie at the level of the controls, where differences are scatter.

By UniProt entry, the sequences of proteins in these tests, tags left out. Where a name states a change or a piece, a line headed by the entry shows the natural chain unless it says otherwise.
UniProt Q9QYK4: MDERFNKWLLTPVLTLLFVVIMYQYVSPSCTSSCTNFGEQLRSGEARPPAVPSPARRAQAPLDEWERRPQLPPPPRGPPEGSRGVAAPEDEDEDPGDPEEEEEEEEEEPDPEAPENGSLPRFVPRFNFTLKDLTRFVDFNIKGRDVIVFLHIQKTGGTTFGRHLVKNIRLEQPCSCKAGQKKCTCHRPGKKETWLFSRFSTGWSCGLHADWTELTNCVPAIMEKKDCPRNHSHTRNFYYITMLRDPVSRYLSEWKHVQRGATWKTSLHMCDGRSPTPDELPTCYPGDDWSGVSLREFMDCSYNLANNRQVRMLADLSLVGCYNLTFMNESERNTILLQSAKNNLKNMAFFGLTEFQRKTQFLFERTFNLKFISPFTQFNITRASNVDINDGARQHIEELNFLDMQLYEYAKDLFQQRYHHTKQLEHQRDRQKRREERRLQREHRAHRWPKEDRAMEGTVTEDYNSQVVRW
UniProt Q9QXV1: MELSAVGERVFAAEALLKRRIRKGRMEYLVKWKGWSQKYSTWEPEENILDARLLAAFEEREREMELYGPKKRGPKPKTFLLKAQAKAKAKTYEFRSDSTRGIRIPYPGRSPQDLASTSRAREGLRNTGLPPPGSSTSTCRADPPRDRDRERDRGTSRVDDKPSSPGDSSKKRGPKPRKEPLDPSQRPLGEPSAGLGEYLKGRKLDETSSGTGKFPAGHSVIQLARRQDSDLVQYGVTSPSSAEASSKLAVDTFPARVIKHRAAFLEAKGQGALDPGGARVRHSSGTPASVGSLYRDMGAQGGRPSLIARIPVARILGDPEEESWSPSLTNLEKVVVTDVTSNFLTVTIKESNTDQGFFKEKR
UniProt Q9WUA6: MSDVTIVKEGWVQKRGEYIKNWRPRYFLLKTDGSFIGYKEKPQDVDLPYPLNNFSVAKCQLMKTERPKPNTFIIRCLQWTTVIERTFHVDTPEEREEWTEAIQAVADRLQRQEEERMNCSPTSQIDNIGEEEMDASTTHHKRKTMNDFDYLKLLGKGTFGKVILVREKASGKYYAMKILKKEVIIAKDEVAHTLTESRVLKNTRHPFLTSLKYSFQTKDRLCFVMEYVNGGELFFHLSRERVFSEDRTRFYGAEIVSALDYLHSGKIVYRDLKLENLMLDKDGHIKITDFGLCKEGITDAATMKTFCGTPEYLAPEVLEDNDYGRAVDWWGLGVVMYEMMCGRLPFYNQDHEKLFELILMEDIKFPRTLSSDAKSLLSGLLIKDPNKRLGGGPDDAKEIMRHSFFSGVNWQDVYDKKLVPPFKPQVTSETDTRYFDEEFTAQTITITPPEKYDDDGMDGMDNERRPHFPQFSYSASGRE
UniProt Q9R1P3: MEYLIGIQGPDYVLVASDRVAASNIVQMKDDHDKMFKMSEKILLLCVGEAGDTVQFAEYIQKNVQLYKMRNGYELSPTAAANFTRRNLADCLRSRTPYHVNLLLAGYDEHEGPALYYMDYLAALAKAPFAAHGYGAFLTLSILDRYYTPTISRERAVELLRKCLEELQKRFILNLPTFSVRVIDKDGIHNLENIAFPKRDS
UniProt Q9R0P5: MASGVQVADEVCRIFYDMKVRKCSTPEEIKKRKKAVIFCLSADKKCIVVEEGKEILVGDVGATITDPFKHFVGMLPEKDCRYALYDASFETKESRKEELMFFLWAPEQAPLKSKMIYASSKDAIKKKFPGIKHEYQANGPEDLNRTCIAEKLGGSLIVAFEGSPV
UniProt Q9WUD1: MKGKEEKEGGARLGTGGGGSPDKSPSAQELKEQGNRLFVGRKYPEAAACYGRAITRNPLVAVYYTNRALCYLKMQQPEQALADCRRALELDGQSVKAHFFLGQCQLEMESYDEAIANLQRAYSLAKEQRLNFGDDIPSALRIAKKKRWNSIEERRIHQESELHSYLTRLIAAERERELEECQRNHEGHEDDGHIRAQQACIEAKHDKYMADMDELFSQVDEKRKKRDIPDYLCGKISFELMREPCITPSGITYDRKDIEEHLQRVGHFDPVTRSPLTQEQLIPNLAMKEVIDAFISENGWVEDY
UniProt Q9QZM2: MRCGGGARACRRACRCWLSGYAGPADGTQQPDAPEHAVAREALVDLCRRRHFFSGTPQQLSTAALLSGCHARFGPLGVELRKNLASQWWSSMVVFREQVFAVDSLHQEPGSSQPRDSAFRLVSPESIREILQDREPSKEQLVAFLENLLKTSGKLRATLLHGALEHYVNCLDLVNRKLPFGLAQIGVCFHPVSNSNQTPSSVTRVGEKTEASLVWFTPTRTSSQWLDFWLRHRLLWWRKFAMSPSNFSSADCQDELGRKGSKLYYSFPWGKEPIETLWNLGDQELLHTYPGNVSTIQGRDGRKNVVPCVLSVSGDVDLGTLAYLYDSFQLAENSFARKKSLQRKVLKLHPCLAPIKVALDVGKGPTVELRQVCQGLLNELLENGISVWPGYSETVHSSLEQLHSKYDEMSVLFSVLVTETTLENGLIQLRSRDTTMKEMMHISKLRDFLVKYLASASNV
UniProt Q9R0Q9: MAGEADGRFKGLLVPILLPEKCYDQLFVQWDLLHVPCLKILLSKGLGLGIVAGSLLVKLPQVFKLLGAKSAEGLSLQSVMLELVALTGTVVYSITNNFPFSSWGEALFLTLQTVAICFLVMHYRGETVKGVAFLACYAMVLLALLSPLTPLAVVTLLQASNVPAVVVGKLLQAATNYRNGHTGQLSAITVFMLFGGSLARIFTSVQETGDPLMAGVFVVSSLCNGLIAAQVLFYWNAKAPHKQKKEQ
UniProt Q9WTU0: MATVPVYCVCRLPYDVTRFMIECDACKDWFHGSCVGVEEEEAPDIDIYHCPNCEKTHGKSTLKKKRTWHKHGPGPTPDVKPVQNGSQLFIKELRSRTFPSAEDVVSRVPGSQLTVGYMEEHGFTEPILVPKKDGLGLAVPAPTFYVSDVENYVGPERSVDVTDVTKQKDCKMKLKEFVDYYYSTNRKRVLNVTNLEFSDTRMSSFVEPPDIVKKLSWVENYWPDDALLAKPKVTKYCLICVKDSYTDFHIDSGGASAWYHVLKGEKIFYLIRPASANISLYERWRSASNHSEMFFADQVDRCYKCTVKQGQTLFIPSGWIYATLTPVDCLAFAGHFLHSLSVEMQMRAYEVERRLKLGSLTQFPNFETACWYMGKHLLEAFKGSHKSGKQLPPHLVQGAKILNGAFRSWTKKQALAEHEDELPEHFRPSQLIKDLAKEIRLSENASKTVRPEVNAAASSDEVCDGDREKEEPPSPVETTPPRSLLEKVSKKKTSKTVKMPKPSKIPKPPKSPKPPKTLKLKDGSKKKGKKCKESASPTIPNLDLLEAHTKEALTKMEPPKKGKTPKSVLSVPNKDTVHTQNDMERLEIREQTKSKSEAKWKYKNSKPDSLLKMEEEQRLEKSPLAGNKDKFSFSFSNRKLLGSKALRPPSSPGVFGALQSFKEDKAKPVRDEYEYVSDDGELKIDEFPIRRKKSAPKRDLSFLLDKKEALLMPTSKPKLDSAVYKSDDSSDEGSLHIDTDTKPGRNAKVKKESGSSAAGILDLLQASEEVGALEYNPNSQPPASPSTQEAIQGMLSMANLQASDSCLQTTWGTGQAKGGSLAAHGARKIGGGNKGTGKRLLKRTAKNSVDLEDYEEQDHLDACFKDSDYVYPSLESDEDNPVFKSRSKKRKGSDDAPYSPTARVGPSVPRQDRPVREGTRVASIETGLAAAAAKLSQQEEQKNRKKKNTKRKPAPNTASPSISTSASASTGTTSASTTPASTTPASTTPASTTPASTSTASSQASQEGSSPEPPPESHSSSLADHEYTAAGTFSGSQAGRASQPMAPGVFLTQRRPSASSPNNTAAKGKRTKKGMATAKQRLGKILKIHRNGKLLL
UniProt Q9QYR6: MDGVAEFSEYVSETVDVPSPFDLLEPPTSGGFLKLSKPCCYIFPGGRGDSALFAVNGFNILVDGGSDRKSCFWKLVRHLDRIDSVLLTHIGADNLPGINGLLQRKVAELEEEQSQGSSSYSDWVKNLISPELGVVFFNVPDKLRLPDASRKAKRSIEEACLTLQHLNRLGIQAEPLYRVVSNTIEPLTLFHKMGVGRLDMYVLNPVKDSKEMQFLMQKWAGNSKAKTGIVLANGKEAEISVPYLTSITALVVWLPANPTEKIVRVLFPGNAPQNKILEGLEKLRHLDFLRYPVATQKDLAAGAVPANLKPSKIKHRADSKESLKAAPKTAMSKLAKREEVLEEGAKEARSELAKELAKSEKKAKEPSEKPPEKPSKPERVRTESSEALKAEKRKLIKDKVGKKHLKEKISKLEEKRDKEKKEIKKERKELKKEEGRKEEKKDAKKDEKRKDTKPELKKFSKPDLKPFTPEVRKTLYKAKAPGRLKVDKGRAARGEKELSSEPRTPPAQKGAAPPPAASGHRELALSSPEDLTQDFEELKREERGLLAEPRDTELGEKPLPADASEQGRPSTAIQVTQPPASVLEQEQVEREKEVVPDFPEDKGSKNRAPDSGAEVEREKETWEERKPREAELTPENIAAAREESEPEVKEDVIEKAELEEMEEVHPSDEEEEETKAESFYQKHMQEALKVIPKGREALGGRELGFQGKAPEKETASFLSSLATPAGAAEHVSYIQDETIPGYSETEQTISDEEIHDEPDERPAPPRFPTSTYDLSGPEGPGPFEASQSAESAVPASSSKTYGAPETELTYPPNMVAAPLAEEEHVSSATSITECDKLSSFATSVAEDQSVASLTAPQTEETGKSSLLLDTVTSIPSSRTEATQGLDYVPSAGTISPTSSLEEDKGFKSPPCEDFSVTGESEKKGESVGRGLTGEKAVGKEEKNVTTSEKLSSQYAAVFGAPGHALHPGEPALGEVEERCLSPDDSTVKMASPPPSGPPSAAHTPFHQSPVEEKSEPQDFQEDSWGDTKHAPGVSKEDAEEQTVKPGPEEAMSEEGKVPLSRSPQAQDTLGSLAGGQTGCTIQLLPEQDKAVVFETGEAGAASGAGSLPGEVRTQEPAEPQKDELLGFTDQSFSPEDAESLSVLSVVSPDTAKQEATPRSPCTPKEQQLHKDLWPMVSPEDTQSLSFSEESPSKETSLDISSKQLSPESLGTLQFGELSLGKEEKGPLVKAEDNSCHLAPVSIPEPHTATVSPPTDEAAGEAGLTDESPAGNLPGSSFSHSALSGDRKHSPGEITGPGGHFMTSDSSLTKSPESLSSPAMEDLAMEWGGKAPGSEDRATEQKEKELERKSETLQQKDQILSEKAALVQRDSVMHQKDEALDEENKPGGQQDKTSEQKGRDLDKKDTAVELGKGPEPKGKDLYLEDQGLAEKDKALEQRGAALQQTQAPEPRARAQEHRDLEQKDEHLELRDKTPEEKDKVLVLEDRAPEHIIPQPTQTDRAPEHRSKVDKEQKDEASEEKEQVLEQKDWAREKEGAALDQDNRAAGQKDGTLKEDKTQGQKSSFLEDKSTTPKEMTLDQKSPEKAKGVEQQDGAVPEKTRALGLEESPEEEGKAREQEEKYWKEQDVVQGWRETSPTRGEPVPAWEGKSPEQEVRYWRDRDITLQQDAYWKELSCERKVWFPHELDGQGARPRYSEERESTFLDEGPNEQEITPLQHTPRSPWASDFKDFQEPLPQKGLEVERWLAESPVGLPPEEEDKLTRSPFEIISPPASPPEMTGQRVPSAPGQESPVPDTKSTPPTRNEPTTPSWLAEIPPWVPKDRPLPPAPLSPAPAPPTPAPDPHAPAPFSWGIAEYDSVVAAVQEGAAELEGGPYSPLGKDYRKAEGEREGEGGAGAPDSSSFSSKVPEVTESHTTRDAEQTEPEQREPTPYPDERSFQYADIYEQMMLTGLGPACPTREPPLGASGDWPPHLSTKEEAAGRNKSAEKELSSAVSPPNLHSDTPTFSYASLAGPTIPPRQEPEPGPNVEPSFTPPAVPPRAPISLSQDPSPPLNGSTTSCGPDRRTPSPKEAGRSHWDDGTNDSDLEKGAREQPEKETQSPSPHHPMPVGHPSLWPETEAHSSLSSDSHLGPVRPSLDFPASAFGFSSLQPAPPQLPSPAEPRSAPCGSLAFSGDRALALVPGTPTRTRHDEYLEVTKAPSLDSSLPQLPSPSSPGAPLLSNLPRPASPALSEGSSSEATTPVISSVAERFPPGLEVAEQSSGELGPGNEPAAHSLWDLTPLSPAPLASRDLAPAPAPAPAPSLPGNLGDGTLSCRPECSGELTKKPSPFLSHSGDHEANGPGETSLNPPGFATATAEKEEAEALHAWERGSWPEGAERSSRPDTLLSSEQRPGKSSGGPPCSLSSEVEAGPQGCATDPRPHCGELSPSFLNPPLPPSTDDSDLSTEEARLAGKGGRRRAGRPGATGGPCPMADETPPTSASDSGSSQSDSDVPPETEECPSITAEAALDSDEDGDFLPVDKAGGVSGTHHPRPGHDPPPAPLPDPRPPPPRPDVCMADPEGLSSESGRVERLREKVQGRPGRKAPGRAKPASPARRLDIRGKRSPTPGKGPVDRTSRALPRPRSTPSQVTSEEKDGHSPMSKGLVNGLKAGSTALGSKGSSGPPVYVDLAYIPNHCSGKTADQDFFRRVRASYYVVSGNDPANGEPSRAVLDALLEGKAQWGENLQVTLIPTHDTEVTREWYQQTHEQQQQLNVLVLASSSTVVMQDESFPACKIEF

Compound: CN[C@@H]1C[C@H]2O[C@@](C)([C@@H]1OC)n1c3ccccc3c3c4c(c5c6ccccc6n2c5c31)C(=O)NC4 [staurosporine]
Test: log2 fold change of tryptic peptide abundance, ligand vs vehicle (limited proteolysis) (log2 ratio); higher = more trypsin-susceptible (destabilized)
Conditions: ligand concentration: 20 uM; sample: mouse liver crude lysate; replicate design: treated separately

| Target | log2 fold change |
| --- | --- |
| UniProt Q9WUL7 (peptide sequence: SVQSQGFK, peptide start residue: 55) | -0.178 |
| UniProt Q9QYK4 (peptide sequence: TSLHMCDGR, peptide start residue: 206) | 0.475 |
| UniProt Q9QXW0 (peptide sequence: SAEDWWWDR, peptide start residue: 25) | 0.213 |
| UniProt Q9R045 (peptide sequence: VHKQELELLNNELLK, peptide start residue: 84) | -0.269 |
| UniProt Q9R1S8 (peptide sequence: FAYPMPFCDR, peptide start residue: 235) | -0.616 |
| UniProt Q9R1R2 (peptide sequence: LGSAPEVLLVR, peptide start residue: 261) | -0.128 |
| UniProt Q9WUA2 (peptide sequence: SSTFPELPYRK, peptide start residue: 296) | -0.337 |
| UniProt Q9QZA0 (peptide sequence: MVDNFRPLQPLMNR, peptide start residue: 277) | 0.295 |
| UniProt Q9QXV1 (peptide sequence: LLAAFEER, peptide start residue: 53) | 0.187 |
| UniProt Q9WUA6 (peptide sequence: RPHFPQFSYSASGRE, peptide start residue: 465) | 0.0142 |
| UniProt Q9WV54 (peptide sequence: SGEGCVITR, peptide start residue: 287) | -0.665 |
| UniProt Q9R1K9 (peptide sequence: MSPKPELTEDQKQEIR, peptide start residue: 19) | 0.176 |
| UniProt Q9R1P3 (peptide sequence: VIDKDGIHNLENIAFPKR, peptide start residue: 182) | -0.342 |
| UniProt Q9QZR0 (peptide sequence: GTSEIHELPPPEKPLKETVDLK, peptide start residue: 362) | 0.239 |
| UniProt Q9R0P5 (peptide sequence: VRKCSTPEEIK, peptide start residue: 20) | -0.221 |
| UniProt Q9WUD1 (peptide sequence: DIEEHLQR, peptide start residue: 257) | 0.194 |

Some of the entries so far, as tab-separated lines.
Target	log2 fold change
UniProt Q9WV54 (peptide sequence: SGEGCVITR, peptide start residue: 287)	-0.665
UniProt Q9R1K9 (peptide sequence: MSPKPELTEDQKQEIR, peptide start residue: 19)	0.176

The results go on.

| Target | log2 fold change |
| --- | --- |
| UniProt Q9QZM2 (peptide sequence: EMMHISK, peptide start residue: 438) | 0.14 |
| UniProt Q9WUA3 (peptide sequence: LAIKLPDEK, peptide start residue: 396) | 0.478 |
| UniProt Q9WUX5 (peptide sequence: SCGPSEDGVPR, peptide start residue: 654) | 0.391 |
| UniProt Q9R092 (peptide sequence: KVWEAAPEHIK, peptide start residue: 225) | -0.652 |
| UniProt Q9QZH3 (peptide sequence: EGSSRPVWSDDDWLK, peptide start residue: 89) | 0.153 |
| UniProt Q9R0Q9 (peptide sequence: LLQAATNYR, peptide start residue: 170) | 0.192 |
| UniProt Q9QY15 (peptide sequence: DPSSPLYSVK, peptide start residue: 82) | 0.135 |
| UniProt Q9QY93 (peptide sequence: YPVHLSR, peptide start residue: 129) | -0.276 |
| UniProt Q9QXY9 (peptide sequence: RQYHFESNQR, peptide start residue: 54) | 0.0884 |
| UniProt Q9R1Q6 (peptide sequence: KLLDGHPAPASPAKEK, peptide start residue: 243) | -0.528 |
| UniProt Q9R099 (peptide sequence: EKPQQHSFTHPLLAAALK, peptide start residue: 66) | -0.371 |
| UniProt Q9R0P4 (peptide sequence: ESHPHGVKR, peptide start residue: 6) | -0.178 |
| UniProt Q9WTU0 (peptide sequence: GSDDAPYSPTAR, peptide start residue: 892) | 0.413 |
| UniProt Q9WV06 (peptide sequence: LAQEEETEK, peptide start residue: 18) | -0.505 |
| UniProt Q9QYR6 (peptide sequence: SSRPDTLLSSEQRPGK, peptide start residue: 2378) | -0.089 |
